Results are given in words; binding and its absence hold for the method and conditions named. In cells and extracts the contact can be indirect. A yes stands for co-enrichment or nearness to the bait. Other partners may have been found.
T1: CGG triplet repeat binding protein 1 (human (endogenous in U-2OS)) (UniProt Q9UFW8)
T1 sequence: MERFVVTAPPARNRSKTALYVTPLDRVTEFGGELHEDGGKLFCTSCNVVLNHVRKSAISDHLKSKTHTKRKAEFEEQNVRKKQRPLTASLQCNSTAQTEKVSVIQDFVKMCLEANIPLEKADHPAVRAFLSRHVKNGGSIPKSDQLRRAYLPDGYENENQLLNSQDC

Sequences of proteins named here, by UniProt entry; tags and fusion partners are left off.
UniProt Q9UJV9: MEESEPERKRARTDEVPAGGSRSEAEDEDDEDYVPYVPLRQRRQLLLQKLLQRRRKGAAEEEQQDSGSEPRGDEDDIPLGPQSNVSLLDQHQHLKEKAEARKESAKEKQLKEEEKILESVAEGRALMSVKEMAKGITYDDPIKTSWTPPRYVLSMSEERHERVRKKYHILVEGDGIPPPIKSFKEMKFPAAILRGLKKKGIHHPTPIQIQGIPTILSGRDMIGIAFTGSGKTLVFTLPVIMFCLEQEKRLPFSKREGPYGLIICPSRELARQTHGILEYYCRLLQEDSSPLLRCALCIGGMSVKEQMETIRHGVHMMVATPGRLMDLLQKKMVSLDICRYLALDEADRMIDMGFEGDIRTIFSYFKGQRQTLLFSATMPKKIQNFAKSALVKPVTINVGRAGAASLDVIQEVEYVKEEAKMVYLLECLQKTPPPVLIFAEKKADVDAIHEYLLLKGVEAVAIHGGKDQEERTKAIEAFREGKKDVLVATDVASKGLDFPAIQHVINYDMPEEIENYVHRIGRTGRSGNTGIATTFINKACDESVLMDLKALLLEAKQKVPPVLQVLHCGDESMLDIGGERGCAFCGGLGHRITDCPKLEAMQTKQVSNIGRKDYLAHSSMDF


Target: T1, CGG triplet repeat binding protein 1 (human (endogenous in U-2OS))
Assay: affinity purification with mass spectrometry; IP of endogenous CGGBP1 from untreated U-2OS Tet-ON lysate (25 mM Tris-HCl pH 7.4, 150 mM KCl, 1 mM MgCl2, 10% glycerol, 0.1% Triton X-100) with a mix of two anti-CGGBP1 antibodies on Protein G magnetic beads, 4 °C; control IgG-IP; LC-MS/MS, label-free quantification, N = 3

Molecule	binding
DDX41, ATP-dependent DEAD-box DNA:RNA helicase (from UniProt Q9UJV9 1-622) (enzyme)	binds
MRM1 (protein, UniProt Q6IN84 21-353) SHAARHGERPGGEELSRLLLDDLVPTSRLELLFGMTPCLLALQAARRSVARLLLQAGKAGLQGKRAELLRMAEARDIPVLRPRRQKLDTMCRYQVHQGVCMEVSPLRPRPWREAGEASPGDDPQQLWLVLDGIQDPRNFGAVLRSAHFLGVDKVITSRRNSCPLTPVVSKSSAGAMEVMDVFSTDDLTGFLQTKAQQGWLVAGTVGCPSTEDPQSSEIPIMSCLEFLWERPTLLVLGNEGSGLSQEVQASCQLLLTILPRRQLPPGLESLNVSVAAGILLHSICSQRKGFPTEGERRQLLQDPQEPSARSEGLSMAQHPGLSSGPEKERQNEG	binds
DDX28, RNA:DNA helicase of the DEAD-box family (enzyme, UniProt Q9NUL7 1-540) MALTRPVRLFSLVTRLLLAPRRGLTVRSPDEPLPVVRIPVALQRQLEQRQSRRRNLPRPVLVRPGPLLVSARRPELNQPARLTLGRWERAPLASQGWKSRRARRDHFSIERAQQEAPAVRKLSSKGSFADLGLEPRVLHALQEAAPEVVQPTTVQSSTIPSLLRGRHVVCAAETGSGKTLSYLLPLLQRLLGQPSLDSLPIPAPRGLVLVPSRELAQQVRAVAQPLGRSLGLLVRDLEGGHGMRRIRLQLSRQPSADVLVATPGALWKALKSRLISLEQLSFLVLDEADTLLDESFLELVDYILEKSHIAEGPADLEDPFNPKAQLVLVGATFPEGVGQLLNKVASPDAVTTITSSKLHCIMPHVKQTFLRLKGADKVAELVHILKHRDRAERTGPSGTVLVFCNSSSTVNWLGYILDDHKIQHLRLQGQMPALMRVGIFQSFQKSSRDILLCTDIASRGLDSTGVELVVNYDFPPTLQDYIHRAGRVGRVGSEVPGTVISFVTHPWDVSLVQKIELAARRRRSLPGLASSVKEPLPQAT	binds
